According to PubChem BioAssay AID493014 (National Center for Advancing Translational Sciences (NCATS), 2011):
Some of the results follow. These are further read-outs of the screen, such as a control signal, another cell line or another target. No call is given for them. Most of these compounds were active or inconclusive in the main read-out, so they are no random draw. Potencies come from curve fits of mixed quality, noted in brackets.

Assay: qHTS Assay to Find Inhibitors of Chronic Active B-Cell Receptor Signaling
Details: ABC-DLBCL IkBa-CBG/CBR reporter, luminescence ratio (green luciferase fused to IkBa over red control in TMD8 lymphoma cells), 4 h
In short: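 Concentration-response series (up to 46 uM) were applied to TMD8 dual-reporter cells for 4 h at 37C with doxycycline. Green/red ratio, after filter-overlap correction, defined %Activity; red signal alone was normalised to basal cells and zero luminescence.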

[1] = measured here: CBR red luminescence, cell number
[2] = measured here: IkBa-CBG green luminescence

Row | SMILES | AC50 [1] | AC50 [2]
1 | COCCCNc1nc(N)c([N+](=O)[O-])c(N2CCCCCC2)n1 | 20 µM [rising, partial curve, poor fit] | –
2 | O=C(Nc1cc(F)ccc1F)c1cc2nc(-c3ccco3)cc(C(F)(F)Cl)n2n1 | 20 µM [falling, partial curve, poor fit] | –
3 | CC(Oc1ccccc1)C(=O)N1CCCc2ccccc21 (stereo not drawn) | 4.11 µM [rising, full curve] | –
4 | COc1ccccc1OCC(=O)/C=C1/N(C)c2ccccc2C1(C)C | 7.08 µM [falling, full curve, poor fit] | –
5 | COc1cccc(-c2nn(-c3ccccc3)cc2C(=O)O)c1 | 17.8 µM [rising, single point] | –
6 | O=C(CN1C(=O)c2ccccc2C1=O)Nc1ccccc1N1CCOCC1 | 3.98 µM [falling, single point] | –
7 | Nc1ccc2nc(CN3CCOCC3)[nH]c2c1 | 0.517 µM [rising, full curve, poor fit] | –
8 | Cc1ccc(-c2nc(CNC(=O)c3cc(C)on3)cs2)cc1 | 12.6 µM [falling, partial curve, poor fit] | –
9 | COCCN(CCOC)C(=O)C1CCCN(S(=O)(=O)c2ccc(NC(=O)OC)cc2)C1 (stereo not drawn) | 1.41 µM [falling, partial curve, poor fit] | –
10 | Cc1cc(C)c2cc(C(=O)N3CCc4ccccc4C3)[nH]c2c1 | 35.5 µM [falling, single point] | –
11 | Cc1ccc(Cl)cc1N1CCN(C(=O)C2CCN(S(=O)(=O)c3ccc4c(c3)oc(=O)n4C)CC2)CC1 | 5.62 µM [falling, full curve, poor fit] | –
12 | Cc1ccc(C)c(CSC2=NCCN2C(=O)Cc2ccc([N+](=O)[O-])cc2)c1 | – | 23.1 µM [rising, partial curve, poor fit]
13 | CCCn1c(SCC(=O)Nc2cccc(S(=O)(=O)NC3=NCCCCC3)c2)nc2ccccc2c1=O | 14.1 µM [falling, single point] | –
14 | CN(C)c1cccc(C(=O)Nc2ccc3nc4n(c(=O)c3c2)CCCCC4)c1 | 0.0058 µM [rising, full curve, poor fit] | –
15 | Oc1ccccc1C1=NN(c2ccccc2)C(c2ccccc2)C1 (stereo not drawn) | 31.6 µM [rising, single point] | 35.5 µM [falling, single point]
16 | C=CCNC(=O)c1ccc(OC)cc1 | 0.447 µM [rising, full curve, poor fit] | –
17 | Cc1ccc(NC(=O)CCC(=O)c2cccs2)c(Br)c1 | 14.1 µM [rising, single point] | –
18 | O=C(O)C1CC(=O)N(CCc2ccccc2)C1 (stereo not drawn) | 16.4 µM [rising, single point] | –
19 | CCCn1nnc(NC(=O)c2ccc(Br)o2)n1 | 29.1 µM [rising, single point] | –
20 | CCc1ccc(NC(=O)c2cc(-c3ccc(F)cc3)on2)cc1 | 3.55 µM [falling, partial curve, poor fit] | –

Complete entries from above:
Cc1ccc(Cl)cc1N1CCN(C(=O)C2CCN(S(=O)(=O)c3ccc4c(c3)oc(=O)n4C)CC2)CC1 as listed: AC50 [1]: 5.62 µM [falling, full curve, poor fit]
COc1cccc(-c2nn(-c3ccccc3)cc2C(=O)O)c1 as listed: AC50 [1]: 17.8 µM [rising, single point]

Following part:

Row | SMILES | AC50 [1] | AC50 [2]
21 | CC1=CCC(C(=O)O)(C(=O)N/N=C/c2cccs2)C(c2ccc(Cl)cc2)C1 (stereo not drawn) | 16.4 µM [rising, single point] | –
22 | O=C(OCn1ncc(Cl)c(Cl)c1=O)c1ccccc1Cl | 11.2 µM [falling, partial curve] | 10 µM [rising, partial curve, poor fit]
23 | CC(C)(CCl)C(=O)Nc1ccc(OC(F)(F)F)cc1 | 15.8 µM [rising, partial curve, poor fit] | –
24 | Cc1nc(-c2ccc(C)c(S(=O)(=O)N3CCC(C(=O)Nc4ccc(Cl)cc4)CC3)c2)no1 | 35.5 µM [falling, single point] | –
25 | O=C1CSC2(N1)C1CC3CC(C1)CC2C3 (stereo not drawn) | 1 µM [rising, partial curve, poor fit] | –
26 | CCCCCNC(=O)c1ccc2c(c1)nc(C)n2-c1cccc(C)c1 | 0.562 µM [rising, partial curve, poor fit] | –
27 | COc1ccccc1-n1cnnc1SCC(=O)N1CCOCC1 | 2.24 µM [falling, full curve] | –
28 | CCOc1ccc(CN2CCNC(=O)C2CC(=O)NCc2ccccn2)cc1 (stereo not drawn) | 11.2 µM [rising, single point] | –
29 | Clc1ccccc1CN1CCN(/N=C/C=C\c2ccco2)CC1 | 12.6 µM [rising, partial curve, poor fit] | –
30 | COc1cc2c(cc1OC)C(c1cc(Br)c(OC)c(OC)c1)CC(=O)N2 (stereo not drawn) | – | 11.2 µM [falling, partial curve, poor fit]
31 | CCC(=O)Nc1cccc(-c2cc3ccccc3oc2=O)c1 | 22.4 µM [falling, single point] | –
32 | CC(C)OC(=O)c1cc2c(=O)[nH]c(C(Cl)(Cl)Cl)nc2o1 | 10 µM [falling, partial curve] | –
33 | Cc1c(/C=N/NC(=O)CNc2ccccc2)c2ccccn2c1C(=O)c1ccccc1 | 2.91 µM [falling, full curve] | –
34 | O=C1/C(=C/c2ccccc2F)SC(=S)N1CC(=O)N1CCCCC1c1cccnc1 (stereo not drawn) | 22.4 µM [falling, single point] | –
35 | CCn1c(C)nc2cc(C(=O)NNS(=O)(=O)c3ccccc3F)ccc21 | 1 µM [falling, partial curve, poor fit] | –
36 | O=C(N/N=C/c1ccc([N+](=O)[O-])o1)c1cc(-c2ccc(-c3ccccc3)cc2)nc2ccccc12 | 5.62 µM [rising, full curve] | 5.62 µM [falling, full curve]
37 | Cc1[nH]c2ccc(C(=O)NC3CCC(C)CC3)cc2c1C (stereo not drawn) | 11.2 µM [falling, partial curve, poor fit] | –
38 | Cc1ccc(C)c(CN2C(=O)c3ccccc3S(=O)c3ccc(C(=O)N4CCN(c5ccccn5)CC4)cc32)c1 (stereo not drawn) | 22.4 µM [falling, single point] | –
39 | COc1ccc(Cn2c(=O)sc3ccccc32)cc1OC | 16.4 µM [falling, single point] | –
40 | Cc1nn(CC(=O)Nc2ccc(Cl)cc2Cl)c(=O)c2ccccc12 | 11.2 µM [rising, partial curve] | –
